In all, about 320,000 compounds went through this assay and about 2,100 (0.66%) were called active. Inconclusive results, whose numbers are uncertain, are shown with a selection of clear calls. Calls follow the shape of the dose curve; as a rule, active = well fitted inhibition curve with a large enough effect in the signal ratio, with a control signal flat (not every such curve was filed as active); inconclusive = small, poorly fitted or top-dose-only effect, or effect the other way, or a change in a side signal; inactive = flat fitted curve, though single readings scatter; the % refers to the signal ratio. Potencies beside an inconclusive call are fits to weak or partial responses and may not hold up.
assay: qHTS Assay for Lipid Storage Modulators in Drosophila S3 Cells; conditions: BODIPY lipid droplet fluorescence, 18-24 h, cells fed with added oleic acid; lipid storage change, negative = inhibition: at 46.1 µM (top of the series) unless noted
Procedure, shortened: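 Drosophila S3 cells loaded with oleic acid (400 uM, as added) and compounds at several concentrations; lipid droplets imaged by 488-nm laser-scanning cytometry, 500–530 nm intensity and object ratio to cell channel. Percent activity normalized to 20 uM Triacsin C.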
% is scaled to controls: 0 for no effect and ±100 for the full control effect; potency is read from the fitted curve at half-maximal effect.

Row | SMILES | lipid storage change, negative = inhibition | Potency
1 | CNC(=O)NC(=O)C(C)OC(=O)CCCc1nc2ccccc2s1 (configuration not stated) | inconclusive: 40.4% | –
2 | c1ccc2[nH]c(SCCN3CCOCC3)nc2c1 | inconclusive: -59.1% | –
3 | COc1cc(C(=O)NC(C)c2cc(C)ccc2C)ccc1OCC(=O)N1CCOCC1 (configuration not stated) | – | inconclusive: 16.4 µM [activator, single point]
4 | Cc1ccc(NC(=S)NNC(=O)c2ccc(N3CCOCC3)c([N+](=O)[O-])c2)cc1C | inconclusive: 37.1% | –
5 | Cc1ccc(O)c(NC(=O)Cc2ccc3ccccc3c2)c1 | inconclusive: 12% | –
6 | O=C(COC(=O)C1CC2CCCC(C1)C2=O)Nc1cccc(F)c1 (configuration not stated) | – | inconclusive: 2.31 µM [falling, partial curve]
7 | Cn1ccsc1=NC(=O)c1ccccc1F | – | inconclusive: 0.0046 µM [falling, full curve, poor fit]
8 | O=C(CN(C(=O)C1CSC(=O)C1)c1ccc(F)cc1)NCc1ccc2c(c1)OCO2 (configuration not stated) | inconclusive: 43.7% | –
9 | O=C(CCNC(=O)c1ccc(Br)cc1)Nc1ccc(S(=O)(=O)N2CCCCC2)cc1 | – | inconclusive: 4.61 µM [falling, single point]
10 | Cc1ccc(NC(=O)CN2C(=O)C3CC=CCC3C2=O)cc1S(=O)(=O)N1CCOCC1 (configuration not stated) | inconclusive: 30.8% | –
11 | CC(=O)NS(=O)(=O)c1ccc(NC(=O)c2cccc(S(=O)(=O)N3CCc4ccccc43)c2)cc1 | inconclusive: -66.9% | –
12 | O=C(Cc1ccccc1)Nc1ccc(NC(=O)c2ccccc2)c(Cl)c1 | inconclusive: -41.6% | –
13 | CCCCCCN(C(=O)CCCCCN1C(=O)NC(c2ccc(-c3ccccc3)cc2)C(C(=O)OCc2ccccc2)=C1C)C(C(=O)NCCCC)C1CCCCC1 (configuration not stated) | inconclusive: -4.33% | –
14 | CC(C(=O)NC1CCS(=O)(=O)C1)N1C(=O)/C(=C/c2ccc(Cl)cc2)SC1=S (configuration not stated) | – | active: 20.6 µM
15 | CN(Cc1ccccc1)S(=O)(=O)c1ccc(Cl)nc1 | inconclusive: 2.74% | –
16 | CC1CCN(c2cc(N3CCOCC3)c(F)cc2[N+](=O)[O-])CC1 | inconclusive: -18.1% | –
17 | Cc1c(OCC(=O)NCC2CCC(C(=O)O)CC2)ccc2c(-c3ccccc3)cc(=O)oc12 (configuration not stated) | inactive | –
18 | Cc1ccc(C)c(S(=O)(=O)N2CCN(C(=O)c3cncc(Br)c3)CC2)c1 | – | inconclusive: 29.1 µM [activator, single point]
19 | C/C(=C\c1ccccc1)C1Nc2cccc3cccc(c23)N1 | – | inconclusive: 18.4 µM [activator, partial curve]
20 | Cc1cc(C(=O)NCc2cc(C(=O)O)co2)co1 | inconclusive: 34.9% | –
21 | C[C@@H](NC(=O)Cn1ccc(NC(=O)OCc2ccccc2)nc1=O)c1cccc2ccccc12 | inconclusive: 4.16% | –
22 | O=C(Cc1ccccc1)NNS(=O)(=O)c1ccc([N+](=O)[O-])cc1 | – | active: 1.46 µM
23 | O=C(c1ccoc1)N1CCC2(CC1)Oc1ccc(F)cc1C(=O)C21CC(c2ccccc2)=NO1 (configuration not stated) | inconclusive: 12.9% | –
24 | CC1Cc2ccccc2N1C(=O)CSc1nnc(-c2ccc(S(=O)(=O)N3CCCCC3)cc2)o1 (configuration not stated) | – | inconclusive: 6.51 µM [cytotoxic, single point]
25 | Cc1ccc(NC(=O)C2C3CCC(O3)C2C(=O)O)cc1Cl (configuration not stated) | – | inconclusive: 29.1 µM [activator, single point]
26 | CCNc1ccccc1C(=O)O | inconclusive: -9.04% | –

Row | SMILES | lipid storage change, negative = inhibition | Potency
27 | CCn1ccnc1CN1CCC(n2nccc2NC(=O)CCc2ccccc2)CC1 | inactive | –
28 | N#Cc1cc(C(=O)Cc2ccccc2)c[nH]1 | inconclusive: -14% [at 9.22 µM] | –
29 | Cc1ccc(OCC(=O)NC(=S)Nc2ccc(S(=O)(=O)Nc3cc(C)on3)cc2)c(Br)c1 | inconclusive: -24.5% | –
30 | Clc1c(-c2ccccc2)nc2ccccn12 | inconclusive: 17.1% | –
31 | c1ccc(OCc2nc3c4c(ncn3n2)-c2ccccc2CC42CCCC2)cc1 | inactive | –
32 | CN(C)CCCN1C(=O)C(=O)/C(=C(/O)c2ccccc2)C1c1ccccn1 (configuration not stated) | – | inconclusive: 0.0291 µM [falling, partial curve]
33 | CC(C)CCN1CCC(N)=NC1=O | inconclusive: 16.5% | –
34 | Cc1cccc(NC(=O)CN2CCN(CC(=O)NCc3ccc(Cl)cc3Cl)CC2)c1C | inconclusive: -13.1% | –
35 | Cc1sc2ncnc(NC(C)C(=O)O)c2c1C (configuration not stated) | inconclusive: 1.34% | –
36 | O=C(CS(=O)(=O)c1ccccc1)N1CCCCCC1 | – | active: 14.6 µM
37 | CCOC(=O)C1=C(COC(=O)/C=C/c2ccc(OC)c(OC)c2)NC(=O)NC1C (configuration not stated) | – | inconclusive: 2.06 µM [falling, partial curve, poor fit]
38 | COc1cccc(NC(=O)c2ocnc2C)c1 | inconclusive: 0.276% | –
39 | CCC1(CC)NC(=O)N(CC(=O)OCC(=O)Nc2ccccc2OC(F)F)C1=O | inconclusive: 5.54% | –
40 | O=C(Nc1ccc(-c2noc(COc3ccccc3Cl)n2)cc1)c1ccco1 | – | inconclusive: 29.1 µM [cytotoxic, single point]
41 | Cc1ccc(NC(=O)c2ccc3nccnc3c2)c(C)c1 | inconclusive: -58.5% | –
42 | C=CC[N+](C)(C)CCCNC(=O)/C=N/O | inconclusive: 97.4% | –
43 | COc1ccc(-n2cnnc2SCc2ncc(-c3ccccc3)o2)cc1 | inconclusive: 26.1% | –
44 | Cc1ccccc1CC(=O)NCC1CCCCC1 | – | inconclusive: 29.1 µM [activator, single point]
45 | CCOc1ccccc1N1CCN(c2ncnc3scc(-c4ccc(OC)cc4)c23)CC1 | inconclusive: 17.7% | –
46 | CCOC(=O)c1sc(NC(=O)CCN2CCOCC2)c(C(=O)OCC)c1C | inconclusive: 21.8% | –
47 | Cc1nnc(SCC(=O)N2CCc3ccccc3C2)n1-c1ccccc1 | inconclusive: -41.1% | –
48 | CN(Cc1ccccc1)C(=S)NC(=O)c1ccc(-c2ccccc2)cc1 | inconclusive: -20.7% | –
49 | CCn1c2ccccc2c2cc(NC(=O)c3cccc([N+](=O)[O-])c3)ccc21 | inconclusive: 67.2% | –
50 | COc1cccc2c1N1C(=O)c3c(C(=O)O)cccc3C1CC2(C)C (configuration not stated) | inconclusive: -5.45% | –
51 | COC(=O)COc1ccc(/C=C2\SC(=O)N(CC(=O)Nc3ccccc3F)C2=O)cc1 | inconclusive: 8.95% | –
52 | COc1ccc(-n2nc(C(=O)NCC(=O)N3CCN(c4ccccc4)CC3)c3ccccc3c2=O)c(OC)c1 | inconclusive: 51% | –

2 of these compounds in a different format.
Row	SMILES	lipid storage change, negative = inhibition	Potency
32	CN(C)CCCN1C(=O)C(=O)/C(=C(/O)c2ccccc2)C1c1ccccn1 (configuration not stated)	–	inconclusive: 0.0291 µM [falling, partial curve]
37	CCOC(=O)C1=C(COC(=O)/C=C/c2ccc(OC)c(OC)c2)NC(=O)NC1C (configuration not stated)	–	inconclusive: 2.06 µM [falling, partial curve, poor fit]

Next compounds

Row | SMILES | lipid storage change, negative = inhibition | Potency
53 | O=C(CCNC(=O)c1ccccc1Cl)Nc1nc2ccc(F)cc2s1 | inconclusive: -54.9% | –
54 | CC(O)CSc1nc2c(c(=O)[nH]c(=O)n2C)n1Cc1ccccc1 (configuration not stated) | – | inconclusive: 20.6 µM [activator, single point]
55 | CCc1c(C)nc(SCC(=O)CC(=O)OC(C)C)c(C#N)c1C | inconclusive: 52.2% | –
56 | CCc1noc(C)c1C(=O)Nc1nc(-c2cc(OC)ccc2OC)cs1 | inconclusive | –
57 | COc1ccc(Cl)cc1C(=O)Nn1cnnc1 | – | inconclusive: 6.51 µM [activator, single point]
58 | COc1ccc(N(C)S(=O)(=O)c2cccc(C(=O)Nc3nc(C)c(C(C)=O)s3)c2)cc1 | – | active: 1.16 µM
59 | CCOC(=O)C1=NN(c2ccccc2C)C2=NC(C)=C(C(=O)OC)C(c3cccc(OC)c3)N12 (configuration not stated) | inconclusive: -8.8% | –
60 | O=C(CSc1nc2ccsc2c(=O)n1NC(=O)c1ccccc1)Nc1nccs1 | inconclusive: -19.4% | –
61 | CCN1C(=O)C(O)(CC(=O)c2ccc3c(c2)OCCO3)c2ccccc21 (configuration not stated) | – | inconclusive: 0.58 µM [activator, full curve, poor fit]
62 | O=C(/C=C/c1ccccc1)N1CCC(c2ccccc2)C1 (configuration not stated) | inconclusive: 72.7% | –
63 | Cc1cc(NC(=O)CSc2cc(Cl)ccc2Cl)n(-c2ccccc2)n1 | inconclusive: -24.5% | –
64 | O=S(=O)(c1ccc(NC(=S)N2CCN(c3ccccc3F)CC2)cc1)N1CCOCC1 | inconclusive: 2.16% | –
65 | COc1ccc(C(=O)Nc2ccccc2C(=O)N2CCOCC2)cc1 | – | inconclusive: 0.116 µM [activator, full curve, poor fit]
66 | CC(=O)N1CCN(Cc2nc3cc(NC(=O)c4ccc(F)cc4)ccc3n2C)CC1 | – | inconclusive: 2.31 µM [falling, partial curve]
67 | CCC(=O)NNc1nc2c(C)cccc2s1 | inconclusive: -5.44% | –
68 | COc1cc(NS(=O)(=O)c2ccc(NC(=S)NC(=O)/C=C/c3ccco3)cc2)ncn1 | – | inconclusive: 7.31 µM [rising, partial curve, poor fit]
69 | FCCCOc1ccc(-c2ccnc(-c3ccccc3)n2)cc1 | – | inconclusive: 29.1 µM [falling, single point]
70 | CCN1C(=O)CSC1=Nc1ccc(C(=O)O)cc1 | – | inconclusive: 0.58 µM [falling, single point]
71 | Cc1ccc(NC2CCCN(C(=O)c3c(C)noc3C)C2)cc1C (configuration not stated) | – | inconclusive: 14.6 µM [activator, single point]
72 | CC(C)NC(=O)CN(Cc1ccc2c(c1)OCO2)C(=O)CCC(=O)Nc1ccccn1 | – | active: 18.4 µM
73 | COC(=O)c1ccc(CSc2nncn2C)cc1 | – | inconclusive: 6.51 µM [activator, partial curve]
74 | O=C(Nc1ccc(Cl)cc1)Nc1cc([N+](=O)[O-])ccc1F | – | inconclusive: 29.1 µM [cytotoxic, single point]
75 | Cc1ccc(C)c(OCC(=O)Nc2cccc(S(=O)(=O)NC3=NCCCCC3)c2)c1 | inconclusive: 7.63% | –
76 | Cc1nc2cc(-c3ccc(Cl)cc3)nn2c(C)c1CCC(=O)NC(C)c1ccc2c(c1)OCCO2 (configuration not stated) | inconclusive: -2.97% | –
77 | COc1ccc(CN(C(=O)c2snc(C(N)=O)c2N)C(C(=O)NC2CCCC2)c2cc(OC)ccc2OC)cc1 (configuration not stated) | – | inconclusive: 20.6 µM [falling, single point]

Whole records from above. Values in the order: lipid storage change, negative = inhibition	Potency
Cc1ccc(O)c(NC(=O)Cc2ccc3ccccc3c2)c1 is listed as inconclusive: 12%	–
COC(=O)COc1ccc(/C=C2\SC(=O)N(CC(=O)Nc3ccccc3F)C2=O)cc1 is listed as inconclusive: 8.95%	–
CCCCCCN(C(=O)CCCCCN1C(=O)NC(c2ccc(-c3ccccc3)cc2)C(C(=O)OCc2ccccc2)=C1C)C(C(=O)NCCCC)C1CCCCC1 (configuration not stated) is listed as inconclusive: -4.33%	–
CN(Cc1ccccc1)C(=S)NC(=O)c1ccc(-c2ccccc2)cc1 is listed as inconclusive: -20.7%	–

Source: PubChem BioAssay AID2685 (National Center for Advancing Translational Sciences (NCATS), 2010)
